# The list shows a part of the results. These are further read-outs of the screen, such as a control signal, another cell line or another target. No call is given for them.
# Protein sequences, listed by entry. Tags and fused reporters are not part of them.
# UniProt P03372, whole entry, looked up: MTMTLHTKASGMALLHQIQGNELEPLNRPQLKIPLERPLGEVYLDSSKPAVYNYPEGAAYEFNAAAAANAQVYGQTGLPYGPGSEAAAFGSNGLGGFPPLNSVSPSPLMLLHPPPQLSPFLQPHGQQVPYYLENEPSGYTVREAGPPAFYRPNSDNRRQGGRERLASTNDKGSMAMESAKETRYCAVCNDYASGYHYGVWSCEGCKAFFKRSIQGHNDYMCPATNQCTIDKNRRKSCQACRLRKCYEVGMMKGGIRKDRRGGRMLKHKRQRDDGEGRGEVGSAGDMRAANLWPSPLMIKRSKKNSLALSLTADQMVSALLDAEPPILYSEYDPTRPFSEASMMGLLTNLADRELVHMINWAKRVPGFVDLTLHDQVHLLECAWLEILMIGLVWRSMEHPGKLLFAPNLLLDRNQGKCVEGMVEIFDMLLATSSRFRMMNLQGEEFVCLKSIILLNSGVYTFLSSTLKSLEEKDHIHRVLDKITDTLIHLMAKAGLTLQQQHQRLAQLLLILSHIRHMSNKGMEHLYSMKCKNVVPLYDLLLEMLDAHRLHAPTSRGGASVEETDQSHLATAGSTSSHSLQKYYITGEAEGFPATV
# Biological target: Estrogen receptor (Homo sapiens) (UniProt P03372)
# Assay: ERα coactivator peptide binding inhibitors, primary screen, biochemical, LOPAC library, TR-FRET (AID 694);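 also: receptor was agonist-bound with estradiol present during the assay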
# Conditions: TR-FRET ERalpha-coactivator peptide binding, at 15 µM, stronger effect = higher value
row,SMILES,inhibition [%]
1,CCCCOc1cc(CC2CNC(=O)N2)ccc1OC (centres undefined),1.94
2,CC(C)(C)NCC(O)COc1cccc2[nH]c(=O)[nH]c12 (centres undefined),3.87
3,CCCOc1ccccc1-c1nc2n[nH]nc2c(=O)[nH]1,1.89
4,COc1cccc(C(=O)NCCN2CCN(c3ccc(Cl)cc3)CC2)c1,3.58
5,CN(C)C(=O)Oc1ccc[n+](C)c1,1.65
6,Nc1c2c(nc3ccccc13)CCCC2O (centres undefined),-2.77
7,O=C(O)CP(=O)(O)O,2.79
8,Cn1ccc2cc3c(cc21)CCN3C(=O)Nc1cccnc1,6.62
9,CCN(CC)CCCCCCCCOC(=O)c1cc(OC)c(OC)c(OC)c1,-0.7
10,N#C/C(=C\c1ccc(O)c(O)c1)C(=O)NCc1ccccc1,2.03
11,C#CCn1c(=O)c2c(ncn2C)n(C)c1=O,-5.36
12,CCCN(CCc1ccccc1)C1CCc2c(O)cccc2C1 (centres undefined),0.98
13,O=C(O)C1=CCCN(CCON=C(c2ccccc2)c2ccccc2)C1,-8.58
14,CCN(c1nc(N)c(C(=O)N=C(N)N)nc1Cl)C(C)C,-2.21
15,CO/N=C(\C(=O)N[C@@H]1C(=O)N2C(C(=O)O)=C(CSc3nc(=O)c(O)nn3C)CSC12)c1csc(N)n1 (some centres undefined),3.04
16,CNC(=O)[C@H]1O[C@@H](n2cnc3c(N)ncnc32)C(O)[C@H]1O (some centres undefined),-1.45
17,CC(C)(CO)Cc1cc(C(C)(C)C)c(O)c(C(C)(C)C)c1,-7.02

# A draw from above in order of heavy-atom count, high to low.
row,SMILES,inhibition [%]
17,CC(C)(CO)Cc1cc(C(C)(C)C)c(O)c(C(C)(C)C)c1,-7.02
2,CC(C)(C)NCC(O)COc1cccc2[nH]c(=O)[nH]c12 (centres undefined),3.87
7,O=C(O)CP(=O)(O)O,2.79

# Going on with the list:

row,SMILES,inhibition [%]
1,C#CCN(C)CCCOc1ccc(Cl)cc1Cl,-1.39
2,CCCn1cnc2c1c(=O)n(CCCCC(C)=O)c(=O)n2C,5.12
3,CC(=O)/C(C)=N/O,-3.28
4,CC(C)NCC(O)c1cc(O)cc(O)c1 (centres undefined),-1.51
5,COCC(=O)O[C@]1(CCN(C)CCCc2nc3ccccc3[nH]2)CCc2cc(F)ccc2[C@@H]1C(C)C,-1.31
6,C=C1C(=O)O[C@@H]2[C@H]3O[C@]3(C)CCC=C(C)CC[C@@H]12,3.58
7,CNCCCN1c2ccccc2CCc2ccccc21,-4.5
8,Cc1cccc(C(=O)NCN2CCN(c3ccccc3C#N)CC2)c1,-4
9,NC1(C(=O)O)CCc2cc(C(=O)O)ccc21 (centres undefined),-2.64
10,Fc1ccc([C@@H]2CCNC[C@H]2COc2ccc3c(c2)OCO3)cc1,-7
11,Cc1cc(O)c2c(c1)C(=O)c1cc(O)cc(O)c1C2=O,3.1
12,Nc1ccc2c3c(cccc13)C(=O)NC2=O,-4.41
13,CN(C)C(=O)Oc1cccc([N+](C)(C)C)c1,-2.66
14,Cc1ccc2c(c1)C(N1CCN(C)CC1)=Nc1cccnc1N2,3.01
15,O=C1C(SCCO)=C(SCCO)C(=O)c2ccccc21,-3.42
16,CC(C)C(=O)Nc1ccc([N+](=O)[O-])c(C(F)(F)F)c1,6.48
17,COc1c2c(nc3ccccc13)OC(C(C)(O)CO)C2 (centres undefined),2.81
